According to PMC9075623:

B1: 14-3-3 protein subunit tau/theta (YWHAQ), endogenous (protein, UniProt P27348 1-245)
chain: MEKTELIQKAKLAEQAERYDDMATCMKAVTEQGAELSNEERNLLSVAYKNVVGGRRSAWRVISSIEQKTDTSDKKLQLIKDYREKVESELRSICTTVLELLDKYLIANATNPESKVFYLKMKGDYFRYLAEVACGDDRKQTIDNSQGAYQEAFDISKKEMQPTHPIRLGLALNFSVFYYEILNNPELACTLAKTAFDEAIAELDTLNEDSYKDSTLIMQLLRDNLTLWTSDSAGEECDAAEGAEN
B2: mitochondrial import receptor subunit TOM40 homolog (TOMM40) (protein, UniProt O96008 1-361)
chain: MGNVLAASSPPAGPPPPPAPALVGLPPPPPSPPGFTLPPLGGSLGAGTSTSRSSERTPGAATASASGAAEDGACGCLPNPGTFEECHRKCKELFPIQMEGVKLTVNKGLSNHFQVNHTVALSTIGESNYHFGVTYVGTKQLSPTEAFPVLVGDMDNSGSLNAQVIHQLGPGLRSKMAIQTQQSKFVNWQVDGEYRGSDFTAAVTLGNPDVLVGSGILVAHYLQSITPCLALGGELVYHRRPGEEGTVMSLAGKYTLNNWLATVTLGQAGMHATYYHKASDQLQVGVEFEASTRMQDTSVSFGYQLDLPKANLLFKGSVDSNWIVGATLEKKLPPLPLTLALGAFLNHRKNKFQCGFGLTIG
B3: hexokinase 2 (HK2) (protein, UniProt P52789 1-917)
chain: MIASHLLAYFFTELNHDQVQKVDQYLYHMRLSDETLLEISKRFRKEMEKGLGATTHPTAAVKMLPTFVRSTPDGTEHGEFLALDLGGTNFRVLWVKVTDNGLQKVEMENQIYAIPEDIMRGSGTQLFDHIAECLANFMDKLQIKDKKLPLGFTFSFPCHQTKLDESFLVSWTKGFKSSGVEGRDVVALIRKAIQRRGDFDIDIVAVVNDTVGTMMTCGYDDHNCEIGLIVGTGSNACYMEEMRHIDMVEGDEGRMCINMEWGAFGDDGSLNDIRTEFDQEIDMGSLNPGKQLFEKMISGMYMGELVRLILVKMAKEELLFGGKLSPELLNTGRFETKDISDIEGEKDGIRKAREVLMRLGLDPTQEDCVATHRICQIVSTRSASLCAATLAAVLQRIKENKGEERLRSTIGVDGSVYKKHPHFAKRLHKTVRRLVPGCDVRFLRSEDGSGKGAAMVTAVAYRLADQHRARQKTLEHLQLSHDQLLEVKRRMKVEMERGLSKETHASAPVKMLPTYVCATPDGTEKGDFLALDLGGTNFRVLLVRVRNGKWGGVEMHNKIYAIPQEVMHGTGDELFDHIVQCIADFLEYMGMKGVSLPLGFTFSFPCQQNSLDESILLKWTKGFKASGCEGEDVVTLLKEAIHRREEFDLDVVAVVNDTVGTMMTCGFEDPHCEVGLIVGTGSNACYMEEMRNVELVEGEEGRMCVNMEWGAFGDNGCLDDFRTEFDVAVDELSLNPGKQRFEKMISGMYLGEIVRNILIDFTKRGLLFRGRISERLKTRGIFETKFLSQIESDCLALLQVRAILQHLGLESTCDDSIIVKEVCTVVARRAAQLCGAGMAAVVDRIRENRGLDALKVTVGVDGTLYKLHPHFAKVMHETVKDLAPKCDVSFLQSEDGSGKGAALITAVACRIREAGQR
B4: MGST1 (protein, UniProt P10620 1-155)
chain: MVDLTQVMDDEVFMAFASYATIILSKMMLMSTATAFYRLTRKVFANPEDCVAFGKGENAKKYLRTDDRVERVRRAHLNDLENIIPFLGIGLLYSLSGPDPSTAILHFRLFVGARIYHTIAYLTPLPQPNRALSFFVGYGVTLSMAYRLLKSKLYL
B5: SCAMP3 (protein, UniProt O14828 1-347)
chain: MAQSRDGGNPFAEPSELDNPFQDPAVIQHRPSRQYATLDVYNPFETREPPPAYEPPAPAPLPPPSAPSLQPSRKLSPTEPKNYGSYSTQASAAAATAELLKKQEELNRKAEELDRRERELQHAALGGTATRQNNWPPLPSFCPVQPCFFQDISMEIPQEFQKTVSTMYYLWMCSTLALLLNFLACLASFCVETNNGAGFGLSILWVLLFTPCSFVCWYRPMYKAFRSDSSFNFFVFFFIFFVQDVLFVLQAIGIPGWGFSGWISALVVPKGNTAVSVLMLLVALLFTGIAVLGIVMLKRIHSLYRRTGASFQKAQQEFAAGVFSNPAVRTAAANAAAGAAENAFRAP
B6: trans-2,3 enoyl-CoA reductase (TECR) (protein, UniProt Q9NZ01 1-308)
chain: MKHYEVEILDAKTREKLCFLDKVEPHATIAEIKNLFTKTHPQWYPARQSLRLDPKGKSLKDEDVLQKLPVGTTATLYFRDLGAQISWVTVFLTEYAGPLFIYLLFYFRVPFIYGHKYDFTSSRHTVVHLACICHSFHYIKRLLETLFVHRFSHGTMPLRNIFKNCTYYWGFAAWMAYYINHPLYTPPTYGAQQVKLALAIFVICQLGNFSIHMALRDLRPAGSKTRKIPYPTKNPFTWLFLLVSCPNYTYEVGSWIGFAIMTQCLPVALFSLVGFTQMTIWAKGKHRSYLKEFRDYPPLRMPIIPFLL

These binders were tested against V5-tagged full-length human TSPO^A147T (A147T polymorphism variant) (human) (assay: affinity purification with mass spectrometry; V5 antibody IP of mitochondria-enriched fractions of U87MG cells transfected with V5-tagged TSPO^WT or TSPO^A147T (controls: IgG, non-transfected cells); protein G magnetic beads, washes in 50mM HEPES pH 7.5, 140mM NaCl, 0.2% NP40; in-solution trypsin digest, LC-MS/MS, Mascot and Scaffold; 3 biological replicates).

| binding | Binder |
| --- | --- |
| no binding | B1 |
| no binding | B2 |
| no binding | B3 |
| binds | B4 |
| binds | B5 |
| no binding | B6 |

Results are given in words; binding and its absence hold for the method and conditions named. Binding seen in cells or lysates may run through a third protein. A yes stands for co-enrichment or nearness to the bait. Other partners may have been found. A no says only that the protein was not detected with the bait. Where a sequence is shown, tags or fusion partners need not be part of it.
